Experimental data reported in the supplement of paper PMC12819154, “High-throughput peptide-centric local stability assay extends protein–ligand identification to membrane proteins, tissues and bacteria” (Nature Structural & Molecular Biology, 2025).
This is one part of the list. Most values lie at the level of the controls, where differences are scatter.

Sequences of proteins named here, by UniProt entry; tags and fusion partners are left off. A change or cut given only in a name is not applied to a line headed by its entry.
UniProt Q15048: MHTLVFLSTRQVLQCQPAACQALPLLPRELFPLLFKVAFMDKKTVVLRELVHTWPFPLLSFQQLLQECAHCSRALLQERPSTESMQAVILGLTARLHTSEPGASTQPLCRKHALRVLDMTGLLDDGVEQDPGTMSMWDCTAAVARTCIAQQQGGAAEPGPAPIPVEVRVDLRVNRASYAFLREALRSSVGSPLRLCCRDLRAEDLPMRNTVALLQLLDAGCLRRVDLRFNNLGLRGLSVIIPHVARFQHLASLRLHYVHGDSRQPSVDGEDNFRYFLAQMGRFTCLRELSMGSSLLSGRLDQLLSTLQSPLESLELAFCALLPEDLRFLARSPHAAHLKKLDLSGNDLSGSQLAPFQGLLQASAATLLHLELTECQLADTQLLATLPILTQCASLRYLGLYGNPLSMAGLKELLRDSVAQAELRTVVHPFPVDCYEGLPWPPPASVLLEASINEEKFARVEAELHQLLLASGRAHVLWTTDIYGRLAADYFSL
UniProt Q14681: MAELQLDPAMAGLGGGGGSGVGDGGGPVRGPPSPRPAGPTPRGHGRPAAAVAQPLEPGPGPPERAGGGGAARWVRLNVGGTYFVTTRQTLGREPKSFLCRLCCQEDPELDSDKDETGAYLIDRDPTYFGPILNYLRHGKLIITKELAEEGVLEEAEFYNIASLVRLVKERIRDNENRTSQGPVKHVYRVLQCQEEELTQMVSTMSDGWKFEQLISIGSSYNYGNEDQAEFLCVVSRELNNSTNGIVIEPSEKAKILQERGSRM
UniProt Q14562: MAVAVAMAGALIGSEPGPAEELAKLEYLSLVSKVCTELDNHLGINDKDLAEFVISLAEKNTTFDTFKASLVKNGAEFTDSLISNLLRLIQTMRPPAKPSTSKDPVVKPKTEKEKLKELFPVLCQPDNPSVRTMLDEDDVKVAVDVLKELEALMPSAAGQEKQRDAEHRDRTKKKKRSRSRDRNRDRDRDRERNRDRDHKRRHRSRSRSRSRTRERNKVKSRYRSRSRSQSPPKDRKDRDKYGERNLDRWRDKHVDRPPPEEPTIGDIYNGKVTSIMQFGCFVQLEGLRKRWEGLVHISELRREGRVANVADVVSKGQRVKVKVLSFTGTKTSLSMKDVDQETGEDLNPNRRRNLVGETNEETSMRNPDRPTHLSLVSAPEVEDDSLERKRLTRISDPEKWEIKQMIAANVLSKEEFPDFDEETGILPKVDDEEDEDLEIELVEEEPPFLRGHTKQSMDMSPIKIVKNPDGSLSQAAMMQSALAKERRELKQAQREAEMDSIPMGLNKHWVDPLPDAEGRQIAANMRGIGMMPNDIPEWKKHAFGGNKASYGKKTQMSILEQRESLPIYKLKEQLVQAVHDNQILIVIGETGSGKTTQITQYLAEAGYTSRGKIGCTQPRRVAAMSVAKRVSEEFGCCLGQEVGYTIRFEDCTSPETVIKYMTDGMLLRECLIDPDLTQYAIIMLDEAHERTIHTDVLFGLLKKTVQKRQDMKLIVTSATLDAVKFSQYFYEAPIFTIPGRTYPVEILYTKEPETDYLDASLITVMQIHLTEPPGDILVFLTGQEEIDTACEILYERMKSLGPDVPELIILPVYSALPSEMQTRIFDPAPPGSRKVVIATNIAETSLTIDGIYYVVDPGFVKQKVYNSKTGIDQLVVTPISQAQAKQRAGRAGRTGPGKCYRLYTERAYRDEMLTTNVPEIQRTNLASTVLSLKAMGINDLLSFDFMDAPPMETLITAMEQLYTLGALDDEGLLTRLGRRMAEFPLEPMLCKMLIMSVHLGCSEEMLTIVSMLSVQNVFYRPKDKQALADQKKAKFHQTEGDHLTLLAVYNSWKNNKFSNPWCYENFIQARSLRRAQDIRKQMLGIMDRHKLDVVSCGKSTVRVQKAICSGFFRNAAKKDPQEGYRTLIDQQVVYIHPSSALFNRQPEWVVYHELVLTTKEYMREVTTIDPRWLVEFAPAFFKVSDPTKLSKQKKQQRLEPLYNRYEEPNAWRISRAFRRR
UniProt Q13618, whole entry: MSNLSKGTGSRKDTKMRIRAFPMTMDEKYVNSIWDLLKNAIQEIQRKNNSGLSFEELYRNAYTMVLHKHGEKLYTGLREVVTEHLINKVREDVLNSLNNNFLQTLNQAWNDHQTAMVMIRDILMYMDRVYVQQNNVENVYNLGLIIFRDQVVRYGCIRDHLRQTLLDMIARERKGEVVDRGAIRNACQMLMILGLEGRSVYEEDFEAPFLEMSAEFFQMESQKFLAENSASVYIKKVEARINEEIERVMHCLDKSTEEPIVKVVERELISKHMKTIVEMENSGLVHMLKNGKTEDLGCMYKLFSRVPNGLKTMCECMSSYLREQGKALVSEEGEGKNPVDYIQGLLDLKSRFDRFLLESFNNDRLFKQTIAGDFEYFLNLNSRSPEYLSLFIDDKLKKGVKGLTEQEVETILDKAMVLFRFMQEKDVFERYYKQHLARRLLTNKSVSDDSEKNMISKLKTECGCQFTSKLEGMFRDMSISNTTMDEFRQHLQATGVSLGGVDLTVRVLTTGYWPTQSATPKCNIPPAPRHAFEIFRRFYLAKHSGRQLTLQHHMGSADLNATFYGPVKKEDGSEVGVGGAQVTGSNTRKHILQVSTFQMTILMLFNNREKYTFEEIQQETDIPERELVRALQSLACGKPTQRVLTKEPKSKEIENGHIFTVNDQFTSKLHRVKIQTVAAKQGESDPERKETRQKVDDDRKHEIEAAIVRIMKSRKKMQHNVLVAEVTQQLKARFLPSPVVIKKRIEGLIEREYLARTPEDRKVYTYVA
UniProt Q14207: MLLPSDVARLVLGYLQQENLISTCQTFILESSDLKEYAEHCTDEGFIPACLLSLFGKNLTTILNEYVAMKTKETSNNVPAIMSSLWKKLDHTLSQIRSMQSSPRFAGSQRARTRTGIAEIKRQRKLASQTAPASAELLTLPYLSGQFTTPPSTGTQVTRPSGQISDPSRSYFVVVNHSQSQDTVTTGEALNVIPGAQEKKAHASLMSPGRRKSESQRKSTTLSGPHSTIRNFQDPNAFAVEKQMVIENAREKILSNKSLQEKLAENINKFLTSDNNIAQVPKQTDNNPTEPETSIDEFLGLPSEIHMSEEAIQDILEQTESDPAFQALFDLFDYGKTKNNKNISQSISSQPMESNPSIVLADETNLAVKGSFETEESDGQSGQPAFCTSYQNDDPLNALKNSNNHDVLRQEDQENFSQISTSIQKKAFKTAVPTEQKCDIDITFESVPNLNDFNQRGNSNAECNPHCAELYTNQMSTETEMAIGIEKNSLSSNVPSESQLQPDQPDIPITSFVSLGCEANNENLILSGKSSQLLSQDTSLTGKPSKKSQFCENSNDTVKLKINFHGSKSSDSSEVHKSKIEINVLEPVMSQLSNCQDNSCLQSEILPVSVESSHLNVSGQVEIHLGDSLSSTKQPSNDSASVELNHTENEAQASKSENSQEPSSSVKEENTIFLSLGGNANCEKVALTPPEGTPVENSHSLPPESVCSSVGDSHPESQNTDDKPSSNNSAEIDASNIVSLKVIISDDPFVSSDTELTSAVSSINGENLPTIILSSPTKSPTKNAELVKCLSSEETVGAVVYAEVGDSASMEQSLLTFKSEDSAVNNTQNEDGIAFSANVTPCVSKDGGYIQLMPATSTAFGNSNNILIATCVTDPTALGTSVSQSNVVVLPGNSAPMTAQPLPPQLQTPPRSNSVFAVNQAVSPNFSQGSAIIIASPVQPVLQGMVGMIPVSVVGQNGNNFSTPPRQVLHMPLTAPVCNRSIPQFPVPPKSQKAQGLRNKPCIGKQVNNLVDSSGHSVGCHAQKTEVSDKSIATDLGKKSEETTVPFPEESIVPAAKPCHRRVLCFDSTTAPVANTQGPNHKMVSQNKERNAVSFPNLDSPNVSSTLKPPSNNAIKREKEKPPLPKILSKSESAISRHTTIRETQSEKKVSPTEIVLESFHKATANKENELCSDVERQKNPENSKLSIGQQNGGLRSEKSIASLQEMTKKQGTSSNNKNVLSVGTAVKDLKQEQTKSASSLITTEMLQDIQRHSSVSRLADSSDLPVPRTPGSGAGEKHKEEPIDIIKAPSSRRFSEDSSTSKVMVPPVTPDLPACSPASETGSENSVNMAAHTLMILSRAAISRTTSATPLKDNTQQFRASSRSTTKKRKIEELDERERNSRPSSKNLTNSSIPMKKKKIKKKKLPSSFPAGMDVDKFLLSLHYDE
UniProt Q13217: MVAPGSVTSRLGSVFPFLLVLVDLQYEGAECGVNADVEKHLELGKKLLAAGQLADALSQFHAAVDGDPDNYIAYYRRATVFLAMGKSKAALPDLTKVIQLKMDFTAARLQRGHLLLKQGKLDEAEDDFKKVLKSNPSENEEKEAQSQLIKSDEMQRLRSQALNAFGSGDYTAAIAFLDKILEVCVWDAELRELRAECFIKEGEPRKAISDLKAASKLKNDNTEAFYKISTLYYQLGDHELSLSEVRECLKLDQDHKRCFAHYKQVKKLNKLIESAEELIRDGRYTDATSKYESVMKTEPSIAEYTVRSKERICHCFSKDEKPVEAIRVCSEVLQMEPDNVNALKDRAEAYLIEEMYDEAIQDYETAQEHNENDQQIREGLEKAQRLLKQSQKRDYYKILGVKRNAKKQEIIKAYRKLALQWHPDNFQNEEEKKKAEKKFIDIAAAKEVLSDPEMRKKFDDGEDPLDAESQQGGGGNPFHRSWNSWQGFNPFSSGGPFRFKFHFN

compound: CN[C@@H]1C[C@H]2O[C@@](C)([C@@H]1OC)n1c3ccccc3c3c4c(c5c6ccccc6n2c5c31)C(=O)NC4 [staurosporine]; test: log2 fold change of tryptic peptide abundance, ligand vs vehicle (limited proteolysis) (log2 ratio); higher = more trypsin-susceptible (destabilized); settings: ligand concentration: 20 uM; sample: K562 cleared lysate; digestion: 4 min, 22 C (HT-PELSA RT4min, Orbitrap Astral)

| Target | log2 fold change |
| --- | --- |
| LRRC14 (peptide sequence: GLSVIIPHVAR, peptide start residue: 236) (UniProt Q15048) | 0.401 |
| KCTD2 (peptide sequence: PAAAVAQPLEPGPGPPER, peptide start residue: 47) (UniProt Q14681) | 0.615 |
| UniProt Q14562 (peptide sequence: GIGMMPNDIPEWKK, peptide start residue: 527) | -0.152 |
| SQSTM1 (peptide sequence: VAALFPALRPGGFQAHYR, peptide start residue: 51) (UniProt Q13501) | -0.2 |
| CUL3 (peptide sequence: NAYTMVLHK, peptide start residue: 60) (UniProt Q13618) | 0.514 |
| NPAT (peptide sequence: SSQLLSQDTSLTGKPSKK, peptide start residue: 530) (UniProt Q14207) | -0.536 |
| DNAJC3 (peptide sequence: EVLSDPEMR, peptide start residue: 447) (UniProt Q13217) | 0.25 |
